According to PMC7206020:
These are yes or no findings as the source states them, for the method shown. In cells and extracts the contact can be indirect. Some entries that bind do so weakly or less than the wild type. For part of these data: Tags and fused reporters may be left off the sequences shown.

Protein sequences, listed by entry. Tags and fused reporters are not part of them.
UniProt P47811: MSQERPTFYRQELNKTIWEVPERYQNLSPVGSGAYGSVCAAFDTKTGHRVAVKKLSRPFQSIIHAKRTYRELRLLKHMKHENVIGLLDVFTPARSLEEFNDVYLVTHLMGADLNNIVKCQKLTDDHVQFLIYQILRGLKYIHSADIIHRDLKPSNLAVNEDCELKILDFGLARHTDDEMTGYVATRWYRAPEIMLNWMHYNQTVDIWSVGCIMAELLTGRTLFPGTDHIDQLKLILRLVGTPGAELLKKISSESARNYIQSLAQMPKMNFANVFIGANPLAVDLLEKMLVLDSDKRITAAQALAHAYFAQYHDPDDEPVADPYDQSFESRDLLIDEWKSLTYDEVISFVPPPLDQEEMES

B1: Protein arginine methyltransferase 7 (Prmt7), HA-tagged, expressed from pcDNA3.1-HA-Prmt7 (enzyme, UniProt Q922X9 1-692)
chain: MKVFCGRANPTTGSLEWLEEDEHYDYHQEIARSSYADMLHDKDRNIKYYQGIRAAVSRVKDRGQKALVLDIGTGTGLLSMMAVTAGADFCYAIEVFKPMAEAAVKIVERNGFSDKIKVINKHSTEVTVGPDGDLPCRANILITELFDTELIGEGALPSYEHAHKHLVQEDCEAVPHRATVYAQLVESRRMWSWNKLFPVRVRTSLGEQVIVPPSELERCPGAPSVCDIQLNQVSPADFTVLSDVLPMFSVDFSKQVSSSAACHSRQFVPLASGQAQVVLSWWDIEMDPEGKIKCTMAPFWAQTDPQELQWRDHWMQCVYFLPQEEPVVQGSPRCLVAHHDDYCVWYSLQRTSPDENDSAYQVRPVCDCQAHLLWNRPRFGEINDQDRTDHYAQALRTVLLPGSVCLCVSDGSLLSMLAHHLGAEQVFTVESSVASYRLMKRIFKVNHLEDKISVINKRPELLTAADLEGKKVSLLLGEPFFTTSLLPWHNLYFWYVRTSVDQHLAPGAVVMPQAASLHAVIVEFRDLWRIRSPCGDCEGFDVHIMDDMIKHSLDFRESREAEPHPLWEYPCRSLSKPQEILTFDFQQPIPQQPMQSKGTMELTRPGKSHGAVLWMEYQLTPDSTISTGLINPAEDKGDCCWNPHCKQAVYFLSTTLDLRVPLNGPRSVSYVVEFHPLTGDITMEFRLADTLS
B2: Protein arginine methyltransferase 7 (Prmt7), endogenous in C2C12 myoblasts (enzyme, UniProt Q922X9 1-692)
chain: MKVFCGRANPTTGSLEWLEEDEHYDYHQEIARSSYADMLHDKDRNIKYYQGIRAAVSRVKDRGQKALVLDIGTGTGLLSMMAVTAGADFCYAIEVFKPMAEAAVKIVERNGFSDKIKVINKHSTEVTVGPDGDLPCRANILITELFDTELIGEGALPSYEHAHKHLVQEDCEAVPHRATVYAQLVESRRMWSWNKLFPVRVRTSLGEQVIVPPSELERCPGAPSVCDIQLNQVSPADFTVLSDVLPMFSVDFSKQVSSSAACHSRQFVPLASGQAQVVLSWWDIEMDPEGKIKCTMAPFWAQTDPQELQWRDHWMQCVYFLPQEEPVVQGSPRCLVAHHDDYCVWYSLQRTSPDENDSAYQVRPVCDCQAHLLWNRPRFGEINDQDRTDHYAQALRTVLLPGSVCLCVSDGSLLSMLAHHLGAEQVFTVESSVASYRLMKRIFKVNHLEDKISVINKRPELLTAADLEGKKVSLLLGEPFFTTSLLPWHNLYFWYVRTSVDQHLAPGAVVMPQAASLHAVIVEFRDLWRIRSPCGDCEGFDVHIMDDMIKHSLDFRESREAEPHPLWEYPCRSLSKPQEILTFDFQQPIPQQPMQSKGTMELTRPGKSHGAVLWMEYQLTPDSTISTGLINPAEDKGDCCWNPHCKQAVYFLSTTLDLRVPLNGPRSVSYVVEFHPLTGDITMEFRLADTLS

Experiments:
[1] = target: p38MAPKα, HA-tagged wildtype, expressed from pcDNA3.1-HA-p38 (WT) (UniProt P47811); test: co-IP; lysates of 293T cells transfected with control, p38α and/or Prmt7 vectors, precipitated with anti-p38α or Prmt7 antibodies and immunoblotted
[2] = target: p38MAPKα, HA-tagged wildtype, expressed from pcDNA3.1-HA-p38 (WT) (UniProt P47811); test: co-IP; Figure S5; cells, constructs and antibodies not shown
[3] = target: p38MAPKα, endogenous in C2C12 myoblasts (mouse (endogenous in C2C12)) (UniProt P47811); test: co-IP; C2C12 lysates from a differentiation time course precipitated with anti-p38α antibodies

| Binder | binding [1] | binding [2] | binding [3] |
| --- | --- | --- | --- |
| B1 | binds | binds | – |
| B2 | – | – | binds |
